According to patent US7972386B2, “Bleaching of substrates” (Conopco, Inc., priority 2005, dated 2011):

Key:
[1] = Catalytic bleaching of pretreated cotton with H2O2, Berger whiteness
[2] = Catalytic bleaching of untreated raw cotton with H2O2, Berger whiteness; settings: 2.3% H2O2, 20 μM catalyst; for Whiteness (Berger) WB: 4.7 g/l Na-borax, 60 min 70° C.; for Whiteness (Berger) Wb: carbonate buffer 5 g/l Na-carbonate, 60 min 65° C.
[3] = 0.2 g/l of each sequestrant with 30 μM [Mn2O3(Me3-TACN)2](PF6)2.H2O, 4.7 g/l Na-borax pH 9.75, 2.3% H2O2, 60 min 65° C.

## O=P([O-])(O)CN(CCN(CCN(CP(=O)(O)O)CP(=O)(O)O)CP(=O)(O)O)CP(=O)(O)O.[Na+] [Dequest 2066]
[1]; [3]
  Whiteness (Berger) Wb: 57.8 Berger

## CN1CCN(C)CCN(C)CC1.CN1CCN(C)CCN(C)CC1.F[P-](F)(F)(F)(F)F.F[P-](F)(F)(F)(F)F.O.[Mn+4].[Mn+4].[O-2].[O-2].[O-2] [[Mn2O3(Me3-TACN)2](PF6)2•H2O, [Mn2O3(Me3-TACN)2] (PF6)2.H2O]
[2]; 0.1 g/l DTPA, pH 9.75
  Whiteness (Berger) WB: 54.0 Berger
[2]; 0.1 g/l DTPA, pH 10
  Whiteness (Berger) WB: 48.6 Berger
[2]; 0.2 g/l DTPA, pH 9.75
  Whiteness (Berger) WB: 55.0 Berger
[2]; 0.2 g/l DTPA, pH 10
  Whiteness (Berger) WB: 54.1 Berger
[2]; initial pH 7.07, 0.2 g/l DTPA
  Whiteness (Berger) Wb: 52.2 Berger
[2]; initial pH 7.47, 0.2 g/l DTPA
  Whiteness (Berger) Wb: 52.4 Berger
[2]; initial pH 7.95, 0.2 g/l DTPA
  Whiteness (Berger) Wb: 54.3 Berger
[2]; initial pH 8.5, 0.2 g/l DTPA
  Whiteness (Berger) Wb: 54.4 Berger
[2]; initial pH 8.96, 0.2 g/l DTPA
  Whiteness (Berger) Wb: 54.4 Berger
[2]; initial pH 9.53, 0.2 g/l DTPA
  Whiteness (Berger) Wb: 52.1 Berger
[2]; initial pH 9.76, 0.2 g/l DTPA
  Whiteness (Berger) Wb: 48.1 Berger
[2]; initial pH 10.06, 0.2 g/l DTPA
  Whiteness (Berger) Wb: 47.3 Berger
[2]; initial pH 10.27, 0.2 g/l DTPA
  Whiteness (Berger) Wb: 47.1 Berger
[2]; initial pH 10.56, 0.2 g/l DTPA
  Whiteness (Berger) Wb: 47.3 Berger
[2]; initial pH 10.72, 0.2 g/l DTPA
  Whiteness (Berger) Wb: 45.5 Berger
[2]; initial pH 10.98, 0.2 g/l DTPA
  Whiteness (Berger) Wb: 46.0 Berger
[2]; initial pH 11.55, 0.2 g/l DTPA
  Whiteness (Berger) Wb: 39.3 Berger
[2]; without DTPA, pH 9.75
  Whiteness (Berger) WB: 42.8 Berger
[1]; pH 9, borate buffer 2.25 g/l Na-borax, 0.2 g/l DTPA, 2.3% H2O2, 30 μM catalyst, 60 min 65° C.
  Whiteness (Berger) Wb: 64.3 Berger
[1]; pH 9.25, borate buffer 2.25 g/l Na-borax, 0.2 g/l DTPA, 2.3% H2O2, 30 μM catalyst, 60 min 65° C.
  Whiteness (Berger) Wb: 66.9 Berger
[1]; pH 9.5, borate buffer 2.25 g/l Na-borax, 0.2 g/l DTPA, 2.3% H2O2, 30 μM catalyst, 60 min 65° C.
  Whiteness (Berger) Wb: 68.6 Berger
[1]; pH 9.75, borate buffer 2.25 g/l Na-borax, 0.2 g/l DTPA, 2.3% H2O2, 30 μM catalyst, 60 min 65° C.
  Whiteness (Berger) Wb: 69.3 Berger
[1]; pH 10, borate buffer 2.25 g/l Na-borax, 0.2 g/l DTPA, 2.3% H2O2, 30 μM catalyst, 60 min 65° C.
  Whiteness (Berger) Wb: 69.3 Berger
[1]; pH 10.25, borate buffer 2.25 g/l Na-borax, 0.2 g/l DTPA, 2.3% H2O2, 30 μM catalyst, 60 min 65° C.
  Whiteness (Berger) Wb: 68.9 Berger
[1]; pH 10.5, borate buffer 2.25 g/l Na-borax, 0.2 g/l DTPA, 2.3% H2O2, 30 μM catalyst, 60 min 65° C.
  Whiteness (Berger) Wb: 67.2 Berger

## O=C(O)CN(CCN(CC(=O)O)CC(=O)O)CCN(CC(=O)O)CC(=O)O [DTPA, diethylenetriaminepentaacetic acid, reference compound]
[1]; [3]
  Whiteness (Berger) Wb: 67.5 Berger

## O=C(O)C[C@H](NCCN[C@@H](CC(=O)O)C(=O)O)C(=O)O [EDDS, reference compound]
[1]; [3]
  Whiteness (Berger) Wb: 45.5 Berger
